This is one part of the list.

The assay addresses T1, OsSMF1 (Oryza sativa, UniProt Q6ZLB0 1-436).
T1 sequence: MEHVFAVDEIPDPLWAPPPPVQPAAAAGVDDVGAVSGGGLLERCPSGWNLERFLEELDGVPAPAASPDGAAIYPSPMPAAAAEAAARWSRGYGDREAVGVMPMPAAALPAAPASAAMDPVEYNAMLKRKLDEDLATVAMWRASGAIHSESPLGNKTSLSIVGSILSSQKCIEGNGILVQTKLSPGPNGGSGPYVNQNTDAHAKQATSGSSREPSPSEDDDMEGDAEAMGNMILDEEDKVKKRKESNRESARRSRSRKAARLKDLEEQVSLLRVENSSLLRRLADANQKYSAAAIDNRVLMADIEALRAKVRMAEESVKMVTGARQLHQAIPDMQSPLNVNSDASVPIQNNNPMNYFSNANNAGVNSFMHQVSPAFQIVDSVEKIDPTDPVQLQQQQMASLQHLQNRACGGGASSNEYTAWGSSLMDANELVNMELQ
In words: protein-binding microarray (RPBM); PBS, 2% BSA, 51.3 ng/ul salmon testes DNA, 50 uM zinc acetate, 200 nM TF, 25 C, 1 h; high values mean tight binding. As to conditions: protein: recombinant; tags: N-terminal polyhistidine and DsRed monomer fusion (pET32a); chain copies: 2; label: CyDye5-dUTP incorporated in the synthesized complementary strand; 3' TTTTT single-stranded linker to array surface; dsDNA, one strand shown. Put shortly:
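For the binding signal, per-feature fluorescence intensity was read in arbitrary units on an Axon 4000B scanner. Before scanning, a 2% BSA-blocked custom Agilent array made double-stranded with Cy5-dUTP was washed after 1 h at 25 °C with 200 nM protein and 50 µM zinc acetate. The proteins were Ni–NTA-purified transcription factors with N-terminal polyhistidine and DsRed fusions, expressed in E. coli BL21-CodonPlus.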
For “CTAGGGTACGAGCAACAATAATAGAGAGTGACTGAGTGAGCGGAGTCACCTAGTGCAG”, the binding signal was 3250 fluorescence intensity (a.u.).

For “TATTTTAATTCTAATGCCACATAAGCGCCACATCACAGCCCGGAGTCACCTAGTGCAG”, the binding signal is 13300 fluorescence intensity (a.u.). As to “CTTCTTTCTTTGTTGCATCTAAGAATTGATGACCTCAGCCCGGAGTCACCTAGTGCAG”, the binding signal was 3170 fluorescence intensity (a.u.). On to “CAGCCCCGACGCTGGCGCCTGCATCAGCAGCTGCACATGCCGGAGTCACCTAGTGCAG”, for which the binding signal is 4090 fluorescence intensity (a.u.). Take “CTCTGCAACCTGCCGTCACCGCCACTACTCAACTCCCTTTCGGAGTCACCTAGTGCAG”: the binding signal is 3190 fluorescence intensity (a.u.). The value for “GTTGCTTCTCAAGGATCAATCTTATTTACCATTGAAGTGTCGGAGTCACCTAGTGCAG” was 21900 fluorescence intensity (a.u.); that for “TGGAGTTTGTACGATTGCAGGTTTGACGATGTTTGACTCGCGGAGTCACCTAGTGCAG” was 3170 fluorescence intensity (a.u.). For “TCACCAAAGATGCCGACATGAGTGACGTCATCGTCGTTGTCGGAGTCACCTAGTGCAG”, the binding signal is 30200 fluorescence intensity (a.u.).

With “GTGCTGTTCCTGCATGTGCATGCATGTATGAGTACGTACGCGGAGTCACCTAGTGCAG”, the binding signal is 3910 fluorescence intensity (a.u.). “CGTCGCCGCCGGACACGCCACCGCTGGGGCTCTTGGACCACGGAGTCACCTAGTGCAG”: the binding signal is 3610 fluorescence intensity (a.u.). Consider “ATTAGCCTTGTTTAAAATGACACATTGGAGTAAGAAGCACCGGAGTCACCTAGTGCAG”, for which the binding signal is 3600 fluorescence intensity (a.u.). In the case of “GAGAAACAGAGAGTGAGTACTAGTCAACCGACTTTGCCGACGGAGTCACCTAGTGCAG”, the binding signal is 3870 fluorescence intensity (a.u.). As to “GATTGCCACGTAAGCGCCACGTCAGTGCCACATCAGATGACGGAGTCACCTAGTGCAG”, the binding signal was 34200 fluorescence intensity (a.u.). Consider “TTTGTGTAAGAATGATGTGTTATGCTCTTGAGCTACTTCCCGGAGTCACCTAGTGCAG”, for which the binding signal was 3580 fluorescence intensity (a.u.).

For “GGAGGTGGGGATGGTGGGAGGTTTTGGTTTGGTAAAATAGCGGAGTCACCTAGTGCAG”, the binding signal was 4910 fluorescence intensity (a.u.). For the sequence “ATGAAGCTTGGCCGGCTTCATCGTAGCAAACCAGTTGGTCCGGAGTCACCTAGTGCAG”, the binding signal is 6680 fluorescence intensity (a.u.). Turning to “GAAGCCGTGGGGAGGTCGTGCTCGAGATCGCCGATGTGGACGGAGTCACCTAGTGCAG”, the binding signal is 3350 fluorescence intensity (a.u.). “CAGTGTGCCACCTACTCCTCCTACTCAAAGCCTCACCGCCCGGAGTCACCTAGTGCAG”: the binding signal was 3660 fluorescence intensity (a.u.). For “TCGCTGTCTGACGTGGAGGTCAGGAGGCTCCGCGCGGACGCGGAGTCACCTAGTGCAG”, the binding signal is 8210 fluorescence intensity (a.u.). As for “AGAGGTTTCCGCCGCCATCGTCGGCGTCGGCGTCGGCGGCCGGAGTCACCTAGTGCAG”, the binding signal is 3300 fluorescence intensity (a.u.). As for “TTATGAAGTGAACTTATTCCACGTGGAAATCACTTCCGGTCGGAGTCACCTAGTGCAG”, the binding signal is 14700 fluorescence intensity (a.u.). Consider “GGAGAGGGGAGAGCTCCTCGCCGCTGACATGTGGGCCATACGGAGTCACCTAGTGCAG”, for which the binding signal was 3700 fluorescence intensity (a.u.).

With “CTGCTCCTGAGGGGTAGGGAGGGAGGGGAAGGAGCACGTTCGGAGTCACCTAGTGCAG”, the binding signal was 3950 fluorescence intensity (a.u.). In the case of “GAGGTGGTCGGCCAGGCTGGTCTTGCCGTGGTCGACGTGCCGGAGTCACCTAGTGCAG” it was 3600 fluorescence intensity (a.u.). As for “CCACACACCGACACGTGGGGCCACCATCAAAGCTGGTCCCCGGAGTCACCTAGTGCAG”, the binding signal was 8670 fluorescence intensity (a.u.). For the sequence “CTTAATTAAGTTCATGCATCTTATCTAGATGCACGGTGCACGGAGTCACCTAGTGCAG”, the binding signal was 24600 fluorescence intensity (a.u.). Regarding “AATATGTCCAGATTCATAGTATTATGATGTGTCACATCCGCGGAGTCACCTAGTGCAG”, the binding signal was 6440 fluorescence intensity (a.u.). The value for “ACTTAGGCGCCACGTCAGCCAATACCGCTATCAAAACCCCCGGAGTCACCTAGTGCAG” was 22100 fluorescence intensity (a.u.).

With “ACCGCTCTCAGTCACCTCCTCTACCCAACTCAAACGAACGCGGAGTCACCTAGTGCAG”, the binding signal was 4210 fluorescence intensity (a.u.). For the sequence “GGAGTGCCTTGATGCTAGGCGGTAGGGACACGTGGGCACGCGGAGTCACCTAGTGCAG”, the binding signal was 13200 fluorescence intensity (a.u.). For the sequence “TATACACACTATGTATTAAAACCCGTGCTACAGCTGGCTGCGGAGTCACCTAGTGCAG”, the binding signal was 3230 fluorescence intensity (a.u.). Turning to “ACACCACAACACCACGAAGCCGCGAGTCACCATCAGTGATCGGAGTCACCTAGTGCAG”, the binding signal is 3420 fluorescence intensity (a.u.).

For “CACAAGTACAAACAACTGCTAGCGTGGATATGTCTCACTACGGAGTCACCTAGTGCAG”, the binding signal was 3700 fluorescence intensity (a.u.). With “TTATTGCACGTGGGAATTGCGGAGGCGTGGCATGGTAGTCCGGAGTCACCTAGTGCAG”, the binding signal is 5030 fluorescence intensity (a.u.). “TGCCATGAAATCGAGGTGAGTGGGTGTGTCACCTTCGAATCGGAGTCACCTAGTGCAG”: the binding signal was 4080 fluorescence intensity (a.u.). In the case of “GGCATCGACGTGAATGAGTCAGCAAGCGCGGGGTGCGCCTCGGAGTCACCTAGTGCAG” it was 6300 fluorescence intensity (a.u.); in that of “CCGACGAGCACATCCACGCCATCGTCATCGGCGTGCTCGGCGGAGTCACCTAGTGCAG”, 4520 fluorescence intensity (a.u.); in that of “TCCGACCGGCTCAACGATGATCAAGACCTACCTGACCTTGCGGAGTCACCTAGTGCAG”, 3410 fluorescence intensity (a.u.). With “AGATAGGCTTGGTCATCACCATTCCTCGACCAGCTCACGCCGGAGTCACCTAGTGCAG”, the binding signal is 3540 fluorescence intensity (a.u.). Regarding “TACTGGAGCCTGTGAGTGCGTAAACGTGGTGTAAGATATGCGGAGTCACCTAGTGCAG”, the binding signal is 3500 fluorescence intensity (a.u.). As for “TGGTTTAAAAGAACATTGATTGGATATTTCTTATAGTTCTCGGAGTCACCTAGTGCAG”, the binding signal was 23300 fluorescence intensity (a.u.). The value for “ATCAATTTTGCAGGTTACCAAGGATGGGTGCCCAGTCATCCGGAGTCACCTAGTGCAG” was 5050 fluorescence intensity (a.u.).

The record behind these values is paper PMC7819943, “Rice protein-binding microarrays: a tool to detect cis-acting elements near promoter regions in rice”.
